Measured values reported in PubChem BioAssay AID188 (DTP/NCI, 2004).
The mice bore no tumour; each value counts animals alive of those treated. Survivors were counted at the toxicity check, usually on the fifth day, unless a day is given; later deaths do not show. Schedules are NCI's codes, read here as Q, the interval in days (D) or hours (H), X, the number of doses.

System: CD2F1 mice, nontumored, toxicity/survival
Assay: NCI In Vivo Anticancer Drug Screen. Data for tumor model Nontumored Animals (Toxicity Test) in CD2F1 (CDF1) mice
[1] = dose: 0.5 mg/kg/injection, schedule: Q04DX003 (ip), vehicle: saline
[2] = dose: 1.0 mg/kg/injection, schedule: Q04DX003 (ip), vehicle: saline
[3] = dose: 2.0 mg/kg/injection, schedule: Q04DX003 (ip), vehicle: saline
[4] = dose: 4.0 mg/kg/injection, schedule: Q04DX003 (ip), vehicle: saline
[5] = dose: 1.0 mg/kg/injection, schedule: Q01DX001 (ip), vehicle: water
[6] = dose: 10.0 mg/kg/injection, schedule: Q01DX001 (ip), vehicle: water
[7] = dose: 100.0 mg/kg/injection, schedule: Q01DX001 (ip), vehicle: water

## C1CN1c1nc(N2CC2)nc(N2CC2)n1
dose: 0.06 mg/kg/injection, schedule: Q03HX008 (ip), vehicle: saline
  survivor count: 8 of 8
dose: 0.06 mg/kg/injection, schedule: Q03HX016 (ip), vehicle: saline
  survivor count: 8 of 8
dose: 0.06 mg/kg/injection, schedule: Q03HX024 (ip), vehicle: saline
  survivor count: 8 of 8
dose: 0.13 mg/kg/injection, schedule: Q03HX008 (ip), vehicle: saline
  survivor count: 8 of 8
dose: 0.13 mg/kg/injection, schedule: Q03HX016 (ip), vehicle: saline
  survivor count: 8 of 8
dose: 0.13 mg/kg/injection, schedule: Q03HX024 (ip), vehicle: saline
  survivor count: 8 of 8
dose: 0.25 mg/kg/injection, schedule: Q01DX005 (ip), vehicle: saline
  survivor count: 8 of 8
dose: 0.25 mg/kg/injection, schedule: Q03HX008 (ip), vehicle: saline
  survivor count: 8 of 8
dose: 0.25 mg/kg/injection, schedule: Q03HX016 (ip), vehicle: saline
  survivor count: 8 of 8
dose: 0.25 mg/kg/injection, schedule: Q03HX024 (ip), vehicle: saline
  survivor count: 8 of 8
dose: 0.5 mg/kg/injection, schedule: Q01DX001 (ip), vehicle: saline
  survivor count: 8 of 8
dose: 0.5 mg/kg/injection, schedule: Q01DX005 (ip), vehicle: saline
  survivor count: 8 of 8
dose: 0.5 mg/kg/injection, schedule: Q03HX008 (ip), vehicle: saline
  survivor count: 8 of 8
dose: 0.5 mg/kg/injection, schedule: Q03HX016 (ip), vehicle: saline
  survivor count: 8 of 8
dose: 0.5 mg/kg/injection, schedule: Q03HX024 (ip), vehicle: saline
  survivor count: 8 of 8
[1]
  survivor count: 8 of 8
dose: 0.5 mg/kg/injection, schedule: Q08DX002 (ip), vehicle: saline
  survivor count: 8 of 8
dose: 0.5 mg/kg/injection, schedule: Q11DX002 (ip), vehicle: saline
  survivor count: 8 of 8
dose: 1.0 mg/kg/injection, schedule: Q01DX001 (ip), vehicle: saline
  survivor count: 8 of 8
dose: 1.0 mg/kg/injection, schedule: Q01DX005 (ip), vehicle: saline
  survivor count: 8 of 8
[2]
  survivor count: 8 of 8
dose: 1.0 mg/kg/injection, schedule: Q08DX002 (ip), vehicle: saline
  survivor count: 8 of 8
dose: 1.0 mg/kg/injection, schedule: Q11DX002 (ip), vehicle: saline
  survivor count: 8 of 8
dose: 2.0 mg/kg/injection, schedule: Q01DX001 (ip), vehicle: saline
  survivor count: 8 of 8
dose: 2.0 mg/kg/injection, schedule: Q01DX005 (ip), vehicle: saline
  survivor count: 8 of 8
[3]
  survivor count: 8 of 8
dose: 2.0 mg/kg/injection, schedule: Q08DX002 (ip), vehicle: saline
  survivor count: 8 of 8
dose: 2.0 mg/kg/injection, schedule: Q11DX002 (ip), vehicle: saline
  survivor count: 8 of 8
dose: 4.0 mg/kg/injection, schedule: Q01DX001 (ip), vehicle: saline
  survivor count: 6 of 8
[4]
  survivor count: 7 of 8
dose: 4.0 mg/kg/injection, schedule: Q08DX002 (ip), vehicle: saline
  survivor count: 7 of 8
dose: 4.0 mg/kg/injection, schedule: Q11DX002 (ip), vehicle: saline
  survivor count: 7 of 8

## NC(=O)c1[nH]nc(C2OC(CO)C(O)C2O)c1O (centres undefined)
dose: 0.25 mg/kg/injection, schedule: Q01DX009 (ip), vehicle: saline
  survivor count: 8 of 8
dose: 0.5 mg/kg/injection, schedule: Q01DX009 (ip), vehicle: saline
  survivor count: 8 of 8
[1]
  survivor count: 8 of 8
dose: 1.0 mg/kg/injection, schedule: Q01DX009 (ip), vehicle: saline
  survivor count: 8 of 8
[2]
  survivor count: 8 of 8
dose: 2.0 mg/kg/injection, schedule: Q01DX009 (ip), vehicle: saline
  survivor count: 8 of 8
[3]
  survivor count: 8 of 8
dose: 4.0 mg/kg/injection, schedule: Q01DX009 (ip), vehicle: saline
  survivor count: 8 of 8
[4]
  survivor count: 8 of 8
dose: 8.0 mg/kg/injection, schedule: Q01DX009 (ip), vehicle: saline
  survivor count: 8 of 8
dose: 8.0 mg/kg/injection, schedule: Q04DX003 (ip), vehicle: saline
  survivor count: 8 of 8
dose: 16.0 mg/kg/injection, schedule: Q01DX009 (ip), vehicle: saline
  survivor count: 4 of 6
dose: 16.0 mg/kg/injection, schedule: Q04DX003 (ip), vehicle: saline
  survivor count: 8 of 8
dose: 32.0 mg/kg/injection, schedule: Q04DX003 (ip), vehicle: saline
  survivor count: 8 of 8

## Nc1nc2ncc(CN(N=O)c3ccc(C(=O)NC(CCC(=O)O)C(=O)O)cc3)nc2c(=O)[nH]1 (centres undefined)
[5]
  survivor count: 2 of 2
[6]
  survivor count: 2 of 2
[7]
  survivor count: 0 of 2

## Nc1nc(N)nc(CCC(Br)(Br)Br)n1
dose: 1.0 mg/kg/injection, schedule: Q01DX001 (ip), vehicle: distilled water + Tween-80
  survivor count: 2 of 2
dose: 10.0 mg/kg/injection, schedule: Q01DX001 (ip), vehicle: distilled water + Tween-80
  survivor count: 2 of 2
dose: 100.0 mg/kg/injection, schedule: Q01DX001 (ip), vehicle: distilled water + Tween-80
  survivor count: 2 of 2

## O=[N+]([O-])c1nccn1CC(O)CF (centres undefined)
dose: 25.0 mg/kg/injection, schedule: Q01DX005 (ip), vehicle: other
  survivor count: 3 of 3
dose: 50.0 mg/kg/injection, schedule: Q01DX001 (ip), vehicle: saline with Tween-80
  survivor count: 3 of 3
dose: 50.0 mg/kg/injection, schedule: Q01DX005 (ip), vehicle: other
  survivor count: 3 of 3
dose: 100.0 mg/kg/injection, schedule: Q01DX001 (ip), vehicle: saline with Tween-80
  survivor count: 3 of 3
dose: 100.0 mg/kg/injection, schedule: Q01DX005 (ip), vehicle: other
  survivor count: 3 of 3
dose: 200.0 mg/kg/injection, schedule: Q01DX001 (ip), vehicle: saline with Tween-80
  survivor count: 3 of 3
dose: 200.0 mg/kg/injection, schedule: Q01DX005 (ip), vehicle: other
  survivor count: 3 of 3
dose: 360.0 mg/kg/injection, schedule: Q01DX001 (ip), vehicle: saline with Tween-80
  survivor count: 3 of 3
dose: 400.0 mg/kg/injection, schedule: Q01DX001 (ip), vehicle: saline with Tween-80
  survivor count: 3 of 3
dose: 400.0 mg/kg/injection, schedule: Q01DX005 (ip), vehicle: other
  survivor count: 2 of 3
dose: 600.0 mg/kg/injection, schedule: Q01DX001 (ip), vehicle: saline with Tween-80
  survivor count: 3 of 3
dose: 600.0 mg/kg/injection, schedule: Q01DX005 (ip), vehicle: other
  survivor count: 1 of 3
dose: 800.0 mg/kg/injection, schedule: Q01DX005 (ip), vehicle: other
  survivor count: 0 of 3
dose: 1000.0 mg/kg/injection, schedule: Q01DX001 (ip), vehicle: saline with Tween-80
  survivor count: 0 of 3

## O=NN(Cc1cnc2[nH]c(=O)[nH]c(=O)c2n1)c1ccc(C(=O)NC(CCC(=O)O)C(=O)O)cc1 (centres undefined)
[5]
  survivor count: 2 of 2
[6]
  survivor count: 2 of 2
[7]
  survivor count: 2 of 2
